Data source: PubChem BioAssay AID686938 (Drosophila RNAi Screening Center, 2013)
The screen tested about 23,000 reagents; shown is a random part of those that have a named target and a result. In the full data, 75 (0.33%) are marked active. 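Raw plate signals without normalisation; calls rest on plate z-scores that were not deposited; ratio present for only 364 wells.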 Entries without a mark were called inactive. Names joined by + are all predicted targets of the reagent. Not given: the dose of the treatment.

Aim: 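Knock-downs reducing store-operated calcium influx in Drosophila cells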 (primary screen)
Cells: Drosophila S2R+ cells
Reagent: long dsRNA against Drosophila genes, about 0.25 µg dsRNA per well, roughly 10,000 cells
Duration: 5 days of knock-down before the calcium assay
Conditions: thapsigargin (SERCA pump blocker) to empty calcium stores; entry signal taken 4 min after adding it
Measured: 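Duplicate raw fluo-4 intensities per well from a plate reader, at rest and four minutes after thapsigargin emptied calcium stores; entry-to-rest ratio filled for only some wells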
Scale: calcium entry signal: higher = stronger calcium signal after store depletion; resting calcium signal: higher = higher resting calcium signal
Active means: 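Called when the plate z-score of the entry-to-rest ratio, mean of duplicates, falls below −3; wells with low overall dye signal (Fmax z below −2) or more than five off-targets excluded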
Calls: active = strongly reduced calcium entry; inactive = no strong reduction

What did the screen give for dbe (GeneID 33269) [DRSC00811]?
calcium entry signal, replicate 1 (fluorescence units): 3.03e7; resting calcium signal, replicate 1 (fluorescence units): 1.97e7

How did the screen score CG10137 (GeneID 35241) [DRSC02014]?
calcium entry signal, replicate 1 (fluorescence units): 3.60e7; resting calcium signal, replicate 1 (fluorescence units): 1.79e7

For CG10137 (GeneID 35241) [DRSC02015], what does the deposit list?
calcium entry signal, replicate 1 (fluorescence units): 4.92e7; calcium entry signal, replicate 2 (fluorescence units): 5.05e7; resting calcium signal, replicate 1 (fluorescence units): 2.31e7; resting calcium signal, replicate 2 (fluorescence units): 2.24e7

Which result is listed for unc80 (GeneID 43324) [DRSC15329]?
calcium entry signal, replicate 1 (fluorescence units): 2.81e7; calcium entry signal, replicate 2 (fluorescence units): 3.84e7; resting calcium signal, replicate 1 (fluorescence units): 1.45e7; resting calcium signal, replicate 2 (fluorescence units): 1.63e7

For dgt3 (GeneID 37377) [DRSC04349], how do the results read?
calcium entry signal, replicate 1 (fluorescence units): 2.90e7; resting calcium signal, replicate 1 (fluorescence units): 1.64e7

For Socs36E (GeneID 35085) [DRSC02455], how do the results read?
calcium entry signal, replicate 1 (fluorescence units): 4.29e7; calcium entry signal, replicate 2 (fluorescence units): 3.77e7; resting calcium signal, replicate 1 (fluorescence units): 2.07e7; resting calcium signal, replicate 2 (fluorescence units): 1.49e7

How did the screen score CG4983 (GeneID 34585) [DRSC02799]?
calcium entry signal, replicate 1 (fluorescence units): 4.67e7; resting calcium signal, replicate 1 (fluorescence units): 2.15e7

As entered above.
Value of CG10137 (GeneID 35241) [DRSC02015] in “resting calcium signal, replicate 1 (fluorescence units)”: 2.31e7
Result of dgt3 (GeneID 37377) [DRSC04349] in “resting calcium signal, replicate 1 (fluorescence units)”: 1.64e7

Additional results:
What is on record for Zip42C.1 (GeneID 35579) [DRSC05003]?
calcium entry signal, replicate 1 (fluorescence units): 3.58e7; calcium entry signal, replicate 2 (fluorescence units): 5.20e7; resting calcium signal, replicate 1 (fluorescence units): 1.92e7; resting calcium signal, replicate 2 (fluorescence units): 2.41e7

How did the screen score CG9083 + Tpc2 [DRSC04625]?
calcium entry signal, replicate 1 (fluorescence units): 2.65e7; resting calcium signal, replicate 1 (fluorescence units): 1.33e7

For CG1513 (GeneID 36028) [DRSC05194], what does the deposit list?
calcium entry signal, replicate 1 (fluorescence units): 3.14e7; calcium entry signal, replicate 2 (fluorescence units): 5.59e7; resting calcium signal, replicate 1 (fluorescence units): 1.55e7; resting calcium signal, replicate 2 (fluorescence units): 2.46e7

With CG1513 (GeneID 36028) [DRSC06553], what was measured?
calcium entry signal, replicate 1 (fluorescence units): 4.88e7; calcium entry signal, replicate 2 (fluorescence units): 3.17e7; resting calcium signal, replicate 1 (fluorescence units): 2.30e7; resting calcium signal, replicate 2 (fluorescence units): 1.55e7

With CG1513 (GeneID 36028) [DRSC06554], what does the deposit list?
calcium entry signal, replicate 1 (fluorescence units): 3.38e7; calcium entry signal, replicate 2 (fluorescence units): 2.85e7; resting calcium signal, replicate 1 (fluorescence units): 1.58e7; resting calcium signal, replicate 2 (fluorescence units): 1.51e7

What did the screen give for nSMase (GeneID 38396) [DRSC08237]?
calcium entry signal, replicate 1 (fluorescence units): 3.58e7; calcium entry signal, replicate 2 (fluorescence units): 2.75e7; resting calcium signal, replicate 1 (fluorescence units): 2.50e7; resting calcium signal, replicate 2 (fluorescence units): 1.33e7

Which result is listed for mbl (GeneID 36945) [DRSC05657]?
calcium entry signal, replicate 1 (fluorescence units): 3.81e7; calcium entry signal, replicate 2 (fluorescence units): 4.98e7; resting calcium signal, replicate 1 (fluorescence units): 1.74e7; resting calcium signal, replicate 2 (fluorescence units): 2.23e7

With mbl (GeneID 36945) [DRSC06449], what was measured?
calcium entry signal, replicate 1 (fluorescence units): 2.49e7; calcium entry signal, replicate 2 (fluorescence units): 2.48e7; resting calcium signal, replicate 1 (fluorescence units): 1.14e7; resting calcium signal, replicate 2 (fluorescence units): 1.13e7

How did the screen score mbl (GeneID 36945) [DRSC07651]?
calcium entry signal, replicate 1 (fluorescence units): 4.87e7; calcium entry signal, replicate 2 (fluorescence units): 4.67e7; resting calcium signal, replicate 1 (fluorescence units): 2.56e7; resting calcium signal, replicate 2 (fluorescence units): 2.45e7

For mbl (GeneID 36945) [DRSC23188], what was measured?
calcium entry signal, replicate 1 (fluorescence units): 4.90e7; calcium entry signal, replicate 2 (fluorescence units): 4.52e7; resting calcium signal, replicate 1 (fluorescence units): 2.34e7; resting calcium signal, replicate 2 (fluorescence units): 1.95e7

What did the screen give for CG6204 (GeneID 42877) [DRSC15991]?
calcium entry signal, replicate 1 (fluorescence units): 3.70e7; calcium entry signal, replicate 2 (fluorescence units): 3.46e7; resting calcium signal, replicate 1 (fluorescence units): 1.99e7; resting calcium signal, replicate 2 (fluorescence units): 1.60e7

For prom (GeneID 246493) [DRSC04684], what was measured?
calcium entry signal, replicate 1 (fluorescence units): 4.08e7; calcium entry signal, replicate 2 (fluorescence units): 4.89e7; resting calcium signal, replicate 1 (fluorescence units): 2.06e7; resting calcium signal, replicate 2 (fluorescence units): 2.16e7

How did the screen score prom (GeneID 246493) [DRSC21463]?
calcium entry signal, replicate 1 (fluorescence units): 1.93e7; calcium entry signal, replicate 2 (fluorescence units): 2.56e7; resting calcium signal, replicate 1 (fluorescence units): 1.04e7; resting calcium signal, replicate 2 (fluorescence units): 1.11e7

For prom (GeneID 246493) [DRSC22088], what does the deposit list?
calcium entry signal, replicate 1 (fluorescence units): 3.81e7; calcium entry signal, replicate 2 (fluorescence units): 6.44e7; resting calcium signal, replicate 1 (fluorescence units): 1.83e7; resting calcium signal, replicate 2 (fluorescence units): 3.61e7
